In PubChem BioAssay AID256 (DTP/NCI, 2004):
The list does not hold the whole screen: it is rich in T/C values a quarter to a half above the control, in often repeated tests (any T/C) and in doses without a T/C. Other doses and runs of a compound stand elsewhere. T/C gives the treated animals as a percentage of the vehicle group. Some entries give survivors of the animals treated and no T/C: the source files T/C as zero there, which appears to mark a toxic dose or a test without result, not a measured value. Some doses without a T/C left all or most animals alive at the check, yet need not have been tolerated: survival well below the control is almost never listed, so the zero probably covers shortened survival too. Counts of survivors are from the toxicity check (mostly the fifth day) where no day follows; animals may have died later. Schedule codes are those of the source, taken here to give the interval after Q, in days (D) or hours (H), and the number of doses after X. Some doses were run more than once; the values are given in rising order. For survival time, the PubChem record calls one and a half times the control and up active, and a quarter to a half above the control has no call in these data; cut-offs in other NCI protocols can differ. Some T/C values carry the count of animals alive at the toxicity check (mostly the fifth day); where none is given, no animal had died by that day.

Test system: CD2F1 mice, L1210 leukemia ip, survival T/C
Assay: NCI In Vivo Anticancer Drug Screen. Data for tumor model L1210 Leukemia (intraperitoneal) in CD2F1 (CDF1) mice
Settings: higher T/C = longer survival
How it was run: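 In this screen, transplantable tumors were grown in mice given either the compound or its vehicle. Results were expressed as the treated measurement relative to the control measurement.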

[1] = T/C endpoint: mean survival time, dose: 400.0 mg/kg/injection, schedule: Q01DX009 (ip), vehicle: saline with Tween-80
[2] = T/C endpoint: mean survival time, dose: 50.0 mg/kg/injection, schedule: Q01DX009 (ip), vehicle: saline

What does the source list for `[Cl][Pt+2][Cl].[NH-]CC(O)c1ccc2oc3ccccc3c2c1.[NH-]CC(O)c1ccc2oc3ccccc3c2c1` (stereo not given)?
survivor count (T/C endpoint: median survival time, dose: 160.0 mg/kg/injection, schedule: Q04DX003 (ip), vehicle: saline with Tween-80): 2 of 6; survivor count (T/C endpoint: median survival time, dose: 320.0 mg/kg/injection, schedule: Q04DX003 (ip), vehicle: saline with Tween-80): 0 of 6

How did the survivor count [1] turn out when `O=[N+]([O-])c1cc(Cl)c(Cl)cc1Cl` was run?
Its survivor count is 0 of 6.

With `CC(=O)OC/C=C(C)/C=C/C=C(C)/C=C/C1=C(C)CCCC1(C)C` as the compound, how does the survivor count (T/C endpoint: mean survival time, dose: 1600.0 mg/kg/injection, schedule: Q01DX009 (ip), vehicle: steroid suspending solution) read?
The survivor count was 3 of 6.

How did the survivor count (T/C endpoint: mean survival time, dose: 400.0 mg/kg/injection, schedule: Q04DX002 (ip), vehicle: saline with Tween-80) turn out when `COc1ccc(NC(=O)Nc2cc(Cl)c(OC)cc2OC)cc1` was run?
Its survivor count is 3 of 3.

Which results are given for `C[N+](C)(C)CCOC(=O)CCC(=O)OCC[N+](C)(C)C`?
survivor count (T/C endpoint: mean survival time, dose: 5.0 mg/kg/injection, schedule: Q04DX003 (ip), vehicle: saline): 2 of 6; survivor count (T/C endpoint: mean survival time, dose: 10.0 mg/kg/injection, schedule: Q04DX003 (ip), vehicle: saline): 1 of 6; survivor count (T/C endpoint: mean survival time, dose: 20.0 mg/kg/injection, schedule: Q04DX003 (ip), vehicle: saline): 0 of 6; survivor count (T/C endpoint: mean survival time, dose: 25.0 mg/kg/injection, schedule: Q04DX003 (ip), vehicle: saline): 5 of 6; survivor count (T/C endpoint: mean survival time, dose: 100.0 mg/kg/injection, schedule: Q04DX003 (ip), vehicle: saline): 0 of 6; survivor count (T/C endpoint: mean survival time, dose: 200.0 mg/kg/injection, schedule: Q04DX003 (ip), vehicle: saline): 0 of 6; survivor count (T/C endpoint: mean survival time, dose: 400.0 mg/kg/injection, schedule: Q04DX003 (ip), vehicle: saline): 0 of 6

Which results are given for `CC1C(=O)OC(C)(C)C1(C)C` (stereo not given)?
survivor count (T/C endpoint: mean survival time, dose: 100.0 mg/kg/injection, schedule: Q01DX009 (ip), vehicle: saline with Tween-80): 2 of 6; survivor count (T/C endpoint: mean survival time, dose: 200.0 mg/kg/injection, schedule: Q04DX003 (ip), vehicle: saline with Tween-80): 5 of 6; survivor count (T/C endpoint: mean survival time, dose: 400.0 mg/kg/injection, schedule: Q04DX003 (ip), vehicle: saline with Tween-80): 0 of 6

What does the source list for `CN(C)c1ccc2c(N(C)C)cc(N(C)C)nc2c1`?
survivor count (T/C endpoint: mean survival time, dose: 50.0 mg/kg/injection, schedule: Q01DX009 (ip), vehicle: Klucel (hydroxypropylcellulose) (HPC)): 0 of 6; survivor count (T/C endpoint: mean survival time, dose: 100.0 mg/kg/injection, schedule: Q01DX009 (ip), vehicle: Klucel (hydroxypropylcellulose) (HPC)): 0 of 6; survivor count (T/C endpoint: mean survival time, dose: 200.0 mg/kg/injection, schedule: Q01DX009 (ip), vehicle: Klucel (hydroxypropylcellulose) (HPC)): 0 of 6

For `O=Cc1ccc(O)c(O)c1`, which T/C (T/C endpoint: mean survival time, dose: 200.0 mg/kg/injection, schedule: Q01DX009 (ip), vehicle: saline with Tween-80) is on record?
Its T/C is 141 % of control.

What about the T/C [1] of the same compound?
Its T/C is 128 % of control.

And the T/C (T/C endpoint: mean survival time, dose: 400.0 mg/kg/injection, schedule: Q01DX009 (ip), vehicle: saline)?
Its T/C is 138 % of control [5 of 6 alive].

And the survivor count (T/C endpoint: mean survival time, dose: 800.0 mg/kg/injection, schedule: Q01DX009 (ip), vehicle: saline with Tween-80)?
The survivor count was 1 of 6.

For `Cc1ccc(S(=O)(=O)n2nc(C3OC(CO)C(O)C3O)c(O)c2C(N)=O)cc1` (stereo not given), which T/C (T/C endpoint: median survival time, dose: 178.5 mg/kg/injection, schedule: Q01DX005 (ip), vehicle: saline) is on record?
The T/C was 132 % of control.

What does the source list for `O=C1C(=Cc2ccc([N+](=O)[O-])cc2)C(=O)c2ccccc21`?
survivor count (T/C endpoint: mean survival time, dose: 100.0 mg/kg/injection, schedule: Q04DX003 (ip), vehicle: Klucel (hydroxypropylcellulose) (HPC)): 6 of 6; survivor count (T/C endpoint: mean survival time, dose: 200.0 mg/kg/injection, schedule: Q04DX003 (ip), vehicle: Klucel (hydroxypropylcellulose) (HPC)): 6 of 6; survivor count (T/C endpoint: mean survival time, dose: 400.0 mg/kg/injection, schedule: Q04DX003 (ip), vehicle: Klucel (hydroxypropylcellulose) (HPC)): 6 of 6

How did the survivor count [1] turn out when `O=c1c(O)c(-c2cc(O)c(O)c(O)c2)oc2cc(O)cc(O)c12` was run?
The survivor count was 5 of 10.

Which results are given for `CC(=O)N(C)c1ccc(Nc2cc(C)[nH]c3ccc4ncnc4c23)cc1`?
T/C (T/C endpoint: mean survival time, dose: 12.5 mg/kg/injection, schedule: Q01DX009 (ip), vehicle: saline): 125 % of control; T/C (T/C endpoint: mean survival time, dose: 25.0 mg/kg/injection, schedule: Q01DX009 (ip), vehicle: saline): 129 % of control; T/C [2]: 143 % of control; survivor count [2]: 7 of 10; survivor count (T/C endpoint: mean survival time, dose: 100.0 mg/kg/injection, schedule: Q01DX009 (ip), vehicle: saline): 0 of 6; survivor count (T/C endpoint: mean survival time, dose: 200.0 mg/kg/injection, schedule: Q01DX009 (ip), vehicle: saline): 0 of 10 and 0 of 6; T/C (T/C endpoint: median survival time, dose: 30.0 mg/kg/injection, schedule: Q01DX005 (ip), vehicle: saline): 137 and 148 % of control; T/C (T/C endpoint: median survival time, dose: 44.0 mg/kg/injection, schedule: Q01DX005 (ip), vehicle: saline): 132 and 144 % of control; T/C (T/C endpoint: median survival time, dose: 100.0 mg/kg/injection, schedule: Q01DX005 (ip), vehicle: saline): 139 % of control

Which results are given for `C[CH2][Sn]1([CH2]C)[O]C2C(CO)OC(n3cnc4c(=O)[nH]c(N)nc43)C2[O]1` (stereo not given)?
survivor count (T/C endpoint: mean survival time, dose: 25.0 mg/kg/injection, schedule: Q01DX005 (ip), vehicle: other): 0 of 6; survivor count (T/C endpoint: mean survival time, dose: 50.0 mg/kg/injection, schedule: Q01DX005 (ip), vehicle: other): 0 of 6; survivor count (T/C endpoint: mean survival time, dose: 100.0 mg/kg/injection, schedule: Q01DX005 (ip), vehicle: other): 0 of 6; survivor count (T/C endpoint: mean survival time, dose: 200.0 mg/kg/injection, schedule: Q01DX005 (ip), vehicle: other): 0 of 6
